Data on one molecule can be found in article PMC5751621.

The chains behind the UniProt entries cited, without tags or fusion partners. Residues count along the entry.
UniProt P02769, residues 25-607: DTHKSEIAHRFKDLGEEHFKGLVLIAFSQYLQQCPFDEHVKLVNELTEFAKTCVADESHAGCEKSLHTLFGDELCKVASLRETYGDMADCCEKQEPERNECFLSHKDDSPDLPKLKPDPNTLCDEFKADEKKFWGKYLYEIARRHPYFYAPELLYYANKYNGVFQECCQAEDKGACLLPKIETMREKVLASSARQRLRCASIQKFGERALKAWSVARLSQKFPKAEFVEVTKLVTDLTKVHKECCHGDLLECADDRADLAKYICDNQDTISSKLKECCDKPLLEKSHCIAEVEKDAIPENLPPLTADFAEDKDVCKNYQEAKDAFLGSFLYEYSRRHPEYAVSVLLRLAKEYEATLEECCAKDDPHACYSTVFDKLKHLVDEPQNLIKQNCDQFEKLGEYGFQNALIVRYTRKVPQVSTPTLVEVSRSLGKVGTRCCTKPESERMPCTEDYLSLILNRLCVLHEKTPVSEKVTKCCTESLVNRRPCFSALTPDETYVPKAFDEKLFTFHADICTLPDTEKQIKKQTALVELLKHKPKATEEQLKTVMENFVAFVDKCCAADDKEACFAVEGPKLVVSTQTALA

The test has as its target bovine serum albumin (bovine) (UniProt P02769). The experiment in a line: SPR; SPR imaging (Horiba SPRi Lab+); BSA (1%) on the naked areas of the sensor; lectins injected at 95 nM in solution, covalently linked to gold NPs or captured by antibody-functionalized gold NPs; 10 mM HEPES pH 7.4, 35 uL/min; read after washing with buffer; both purified. For orientation: In SPR one partner is held on a chip, and binding of the other changes the refractive index at the surface.

These are yes or no findings as the source states them, for the method shown.

B1: peanut agglutinin (protein, UniProt P02872 24-273)
chain: AETVSFNFNSFSEGNPAINFQGDVTVLSNGNIQLTNLNKVNSVGRVLYAMPVRIWSSATGNVASFLTSFSFEMKDIKDYDPADGIIFFIAPEDTQIPAGSIGGGTLGVSDTKGAGHFVGVEFDTYSNSEYNDPPTDHVGIDVNSVDSVKTVPWNSVSGAVVKVTVIYDSSTKTLSVAVTNDNGDITTIAQVVDLKAKLPERVKFGFSASGSLGGRQIHLIRSWSFTSTLITTTRRSIDNNEKKIMNMASA
Consider B1, for which the binding entry is “no binding (tested: 95 nM)”.
